Experimental data taken from patent US20180038860A1 (published 2018).
No constants are given. Whether binding was seen depends on the method and setting. Some results given as binding are weak or reduced against the parent protein; the word gives no strength.

Assays:
[1] = molecular target: T1, CCR4 on Tregs / T cells from patients with Pancreatic Cancer or Urinary Bladder Cancer (human) (UniProt P51679); assay: flow cytometry, biotinylated chemokine on CCR4 expressing Tregs of PC and UBC patients
T1 sequence (looked up): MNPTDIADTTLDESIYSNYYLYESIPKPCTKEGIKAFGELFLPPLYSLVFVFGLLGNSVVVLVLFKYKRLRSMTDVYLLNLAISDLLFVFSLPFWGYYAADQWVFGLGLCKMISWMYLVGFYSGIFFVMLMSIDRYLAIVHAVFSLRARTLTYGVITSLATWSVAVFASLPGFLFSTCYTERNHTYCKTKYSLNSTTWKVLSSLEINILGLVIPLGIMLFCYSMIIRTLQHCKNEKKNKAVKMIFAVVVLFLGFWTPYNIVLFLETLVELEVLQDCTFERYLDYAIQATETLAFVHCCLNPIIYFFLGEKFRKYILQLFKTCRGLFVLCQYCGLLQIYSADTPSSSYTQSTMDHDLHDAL

[2] = molecular target: T1, CCR4 on Tregs / T cells from patients with Pancreatic Cancer or Urinary Bladder Cancer (human); assay: flow cytometry, 1 µM biotinylated chemokine detected with fluorophore-streptavidin, Tregs of a PC patient

binding [1]: binds | binding [2]: binds
B1: biotinylated MDC (bMDC) (ligand, UniProt O00626 25-93, looked up)
chain: GPYGANMEDSVCCRDYVRYRLPLRVVKHFYWTSDSCPRPGVVLLTFRDKEICADPRVPWVKMILNKLSQ
modifications: biotinylated (site not stated in Example 2B)
